Results are given in words; binding and its absence hold for the method and conditions named.
Target: Lis1 (S. cerevisiae Pac1) (S. cerevisiae) (UniProt P39946)
Test: cross-linking; 0.5 μM protein ± 0.05% glutaraldehyde, 5 min, ambient temperature; 30 mM HEPES pH 7.2, 50 mM potassium acetate; SDS-PAGE; control pretreated with 4% LDS; both purified

B1: Lis1 (S. cerevisiae Pac1) (protein, UniProt P39946 1-494)
chain: MTNWQQQLPLTDTQKNELDKSVLRYLNWNYKQTVRHEHAQDYESVRHAIVTLSGFLLQESVDRQEFISNNDTSNESMVDIDELLLPKKWNSIVRLQKKIIELEQNTETLVSQIKDLNTQVSELAQFKPTTSNGTSAHNVLKWIPRNLPSCLINVESSVTSVKLHPNLPIVFVATDHGKLYAFDLFNYTIPLASLQSHTKAITSMDVLFTNYTNSSKKNYLVIVTASKDLQIHVFKWVSEECKFQQIRSLLGHEHIVSAVKIWQKNNDVHIASCSRDQTVKIWDFHNGWSLKTFQPHSQWVRSIDVLGDYIISGSHDTTLRLTHWPSGNGLSVGTGHEFPIEKVKFIHFIEDSPEIRFRTPSTDRYKNWGMQYCVSASRDRTIKIWEIPLPTLMAHRAPIPNPTDSNFRCVLTLKGHLSWVRDISIRGQYLFSCADDKSVRCWDLNTGQCLHVWEKLHTGFVNCLDLDVDFDSNVTPRQMMVTGGLDCKSNVFMR
  binding: no binding (condition: pretreated with 4% LDS (denatured))
